# Test results reported in patent US12336991B2, “Factor XIIA inhibitors” (UNIVERSITY OF LEEDS, priority 2018, dated 2025).
# At least one structure is not confirmed: it was looked up by name or label, or the drawing left a doubt.
# What was measured:
# FXa = FXa (Homo sapiens, UniProt P00742); experiment: Determination of selectivity: FXa inhibition, chromogenic substrate S2765 assay; format: biochemical; conditions: fold selectivity for FXIIa over FXa
# Procedure: (§1) The activities of the compounds of the invention have been determined in vitro using the following assays protocols for the screening of activity of FXIIa and other proteases. Each of these assays were performed in a purified system employing the use of chromogenic assays in microplate plate wells. Chromogenic peptide substrates mimicking natural protein substrates are attached via an amide bond to a chromogenic group. Paranitroaniline (pNA) is released from the peptide following catalyses by the proteolytic enzyme; the absorbance increases and can be monitored at 405 nm.
# (§2) All compounds were dissolved in 100% (v/v) DMSO to a stock concentration of 10 mM, the highest concentration of compound used in each assay is 500 μM. The final concentrations of DMSO were 5% (v/v) in 50 mM Tris 137 mM NaC pH 7.4. Where no test compound was added a final concentration of 5% DMSO was employed.
# (§3) Determination of Selectivity
# (§4) To determine selectivity of test compounds, these test compounds were assayed for inhibitory activity against other serine proteases including FXa and thrombin. […] Kinetic readings at 405 nm were monitored every 12 secs for a total duration of 3 hours at 37° C. Gradients of initial rates were determined and employed to calculate IC50 values. […]
# (§5) Where [Substrate] denotes the concentration of substrate used in the assay and Km is the determined value of each enzyme with its own substrate. […]
# thrombin = molecular target: T1, thrombin (Homo sapiens, UniProt P00734); experiment: Determination of selectivity: thrombin inhibition, chromogenic substrate GPR assay; format: biochemical; conditions: fold selectivity for FXIIa over thrombin
# T1 construct: FXa (5 nM) and thrombin (5 nM)
# Procedure: as §1, §2, §3, §4, §5
smiles,measurement,setting,value
"CC(=O)N[C@H]1C[C@@H](C(=O)NCc2ccc3c(c2)nnn3C)N(C(=O)[C@H](N)CCc2ccccc2)C1 [Example M05144, (2S,4S)-4-Acetylamino-1-((R)-2-amino-4-phenyl-butyryl)-pyrrolidine-2-carboxylic acid (1-methyl-1H-benzotriazol-5-ylmethyl)-amide]",FXa (human)/FXIIa alpha (human),FXa,∘∘
same,Thrombin (human)/FXIIa alpha (human),thrombin,++ (fold selectivity value of 10 to 100)
